# In the supplement of paper PMC8728848:
# This is one part of the list.
# Experiments:
# Assay in all cases: glycan array binding signal (z-score within array); higher = stronger binding
# Settings in all cases: glycan notation: IUPAC condensed, linker removed
# Fuc(a1-2)Gal = target: Fuc(a1-2)Gal
# In short: (§1)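 From the Consortium for Functional Glycomics database, 3228 arrays were curated, keeping only those whose protein sequence was available. Binding is given as a within-array Z-score averaged across arrays sharing a protein sequence and across linkers. Negative Z-scores can be read as non-binding.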
# Fuc(a1-2)Gal(b1-3)GalNAc = target: Fuc(a1-2)Gal(b1-3)GalNAc
# In short: as §1
# [1] = target: Fuc(a1-2)Gal(b1-3)GalNAc(a1-3)[Fuc(a1-2)]Gal(b1-4)Glc
# In short: as §1
# [2] = target: Fuc(a1-2)Gal(b1-3)GalNAc(a1-3)[Fuc(a1-2)]Gal(b1-4)GlcNAc
# In short: as §1
# [3] = target: Fuc(a1-2)Gal(b1-3)GalNAc(b1-3)Gal
# In short: as §1
# [4] = target: Fuc(a1-2)Gal(b1-3)GalNAc(b1-3)Gal(a1-4)Gal(b1-4)Glc
# In short: as §1
# [5] = target: Fuc(a1-2)Gal(b1-3)GalNAc(b1-4)[Neu5Ac(a2-3)]Gal(b1-4)Glc
# In short: as §1
# Fuc(a1-2)Gal(b1-3)GlcNAc = target: Fuc(a1-2)Gal(b1-3)GlcNAc
# In short: as §1
# [6] = target: Fuc(a1-2)Gal(b1-3)GlcNAc(b1-2)Man(a1-3)[Fuc(a1-2)Gal(b1-3)GlcNAc(b1-2)Man(a1-6)]Man(b1-4)GlcNAc(b1-4)GlcNAc
# In short: as §1
# [7] = target: Fuc(a1-2)Gal(b1-3)GlcNAc(b1-2)Man(a1-3)[Fuc(a1-2)Gal(b1-3)GlcNAc(b1-2)Man(a1-6)]Man(b1-4)GlcNAc(b1-4)[Fuc(a1-6)]GlcNAc
# In short: as §1
# [8] = target: Fuc(a1-2)Gal(b1-3)GlcNAc(b1-3)Gal(b1-4)Glc
# In short: as §1
# [9] = target: Fuc(a1-2)Gal(b1-3)GlcNAc(b1-3)GalNAc
# In short: as §1
# [10] = target: Fuc(a1-2)Gal(b1-3)GlcNAc(b1-3)[Fuc(a1-2)Gal(b1-3)GlcNAc(b1-6)]GalNAc
# In short: as §1
# [11] = target: Fuc(a1-2)Gal(b1-3)GlcNAc(b1-3)[Gal(b1-4)GlcNAc(b1-6)]Gal(b1-4)Glc
# In short: as §1
# [12] = target: Fuc(a1-2)Gal(b1-3)GlcNAc(b1-3)[Neu5Ac(a2-6)Gal(b1-4)GlcNAc(b1-6)]Gal(b1-4)Glc
# In short: as §1
# [13] = target: Fuc(a1-2)Gal(b1-3)GlcNAc6S
# In short: as §1
# [14] = target: Fuc(a1-2)Gal(b1-3)[Fuc(a1-4)]GlcNAc
# In short: as §1
# [15] = target: Fuc(a1-2)Gal(b1-3)[Fuc(a1-4)]GlcNAc(b1-2)Man(a1-3)[Fuc(a1-2)Gal(b1-3)[Fuc(a1-4)]GlcNAc(b1-2)Man(a1-3)]Man(b1-4)GlcNAc(b1-4)GlcNAc
# In short: as §1
# [16] = target: Fuc(a1-2)Gal(b1-3)[Fuc(a1-4)]GlcNAc(b1-2)Man(a1-3)[Fuc(a1-2)Gal(b1-3)[Fuc(a1-4)]GlcNAc(b1-2)Man(a1-6)]Man(b1-4)GlcNAc(b1-4)[Fuc(a1-6)]GlcNAc(b1-4)[Fuc(a1-6)]GlcNAc
# In short: as §1
# [17] = target: Fuc(a1-2)Gal(b1-3)[Fuc(a1-4)]GlcNAc(b1-3)[Fuc(a1-3)[Gal(b1-4)]GlcNAc(b1-6)]Gal(b1-4)Glc
# In short: as §1
# [18] = target: Fuc(a1-2)Gal(b1-3)[Fuc(a1-4)]GlcNAc(b1-3)[Gal(b1-4)GlcNAc(b1-6)]Gal(b1-4)Glc
# In short: as §1
# Fuc(a1-2)Gal(b1-4)Glc = target: Fuc(a1-2)Gal(b1-4)Glc
# In short: as §1
# Fuc(a1-2)Gal(b1-4)Glc6S = target: Fuc(a1-2)Gal(b1-4)Glc6S
# In short: as §1
# Fuc(a1-2)Gal(b1-4)GlcNAc = target: Fuc(a1-2)Gal(b1-4)GlcNAc
# In short: as §1
# [19] = target: Fuc(a1-2)Gal(b1-4)GlcNAc(b1-2)Man
# In short: as §1
# [20] = target: Fuc(a1-2)Gal(b1-4)GlcNAc(b1-2)Man(a1-3)[Fuc(a1-2)Gal(b1-4)GlcNAc(b1-2)Man(a1-6)]Man(b1-4)GlcNAc(b1-4)GlcNAc
# In short: as §1
# [21] = target: Fuc(a1-2)Gal(b1-4)GlcNAc(b1-2)Man(a1-3)[Fuc(a1-2)Gal(b1-4)GlcNAc(b1-2)Man(a1-6)]Man(b1-4)GlcNAc(b1-4)[Fuc(a1-6)]GlcNAc
# In short: as §1
# [22] = target: Fuc(a1-2)Gal(b1-4)GlcNAc(b1-2)[Fuc(a1-2)Gal(b1-4)GlcNAc(b1-4)]Man(a1-3)[Fuc(a1-2)Gal(b1-4)GlcNAc(b1-2)Man(a1-6)]Man(b1-4)GlcNAc(b1-4)GlcNAc
# In short: as §1
# [23] = target: Fuc(a1-2)Gal(b1-4)GlcNAc(b1-3)Gal(b1-4)GlcNAc
# In short: as §1
# [24] = target: Fuc(a1-2)Gal(b1-4)GlcNAc(b1-3)Gal(b1-4)GlcNAc(b1-2)Man(a1-3)[Fuc(a1-2)Gal(b1-4)GlcNAc(b1-3)Gal(b1-4)GlcNAc(b1-2)Man(a1-6)]Man(b1-4)GlcNAc(b1-4)GlcNAc
# In short: as §1
binder,measurement,setting,value
PX9961Q-bfa-504-27-504 (Bacteroides fragilis) (protein) NDWLDRKPADGIPSEDAITNYNDALTARTGMYDGIQGNSNATSYYGARMFYYGDVRADDMQARTQGMRSSSCYEMLYTVDDAPNMWNIPYNVIRRANRLIEAINEKKVTDATEAQIGKIYSEALVVRALVHFDLVRIYGMPYTADNGASLGVPVIVKPLERNDLPSRNTVAEVYTQVITDLTDAINSGYLAKDQTPGYINEWAAKALLTRVYLTKGDNENALKVAEDIITNSPYKLWTNEEYVNAWYKSNGAHTNEMIFEVVNASNDDWTDRNGIAYLLNENGYADAIVTKSFMNMLSQDPKDVRIGMVLPAQYDKDLQEEYGDAKIFINKFPADKDDVGEMRLNNLPLLRLSEVYLSAAEAAAKLGGHQDKAAKYLNEIVQRANPEAKAISEADATVERIILERRKEMIGEGQRYFDALRNNETIVRYKDEGDKGYHYSLIKESQSFDRTYFRAILPIPVDETNVNPNLRAQQNPGY,glycan array binding signal (z-score),Fuc(a1-2)Gal,-0.522
same,glycan array binding signal (z-score),Fuc(a1-2)Gal(b1-3)GalNAc,-0.893
same,glycan array binding signal (z-score),[1],-0.312
same,glycan array binding signal (z-score),[2],-0.275
same,glycan array binding signal (z-score),[3],0.241
same,glycan array binding signal (z-score),[4],-1.11
same,glycan array binding signal (z-score),[5],0.477
same,glycan array binding signal (z-score),Fuc(a1-2)Gal(b1-3)GlcNAc,-0.986
same,glycan array binding signal (z-score),[6],2.69
same,glycan array binding signal (z-score),[7],-0.241
same,glycan array binding signal (z-score),[8],0.015
same,glycan array binding signal (z-score),[9],-0.855
same,glycan array binding signal (z-score),[10],1.16
same,glycan array binding signal (z-score),[11],-0.322
same,glycan array binding signal (z-score),[12],-0.282
same,glycan array binding signal (z-score),[13],-0.483
same,glycan array binding signal (z-score),[14],-0.823
same,glycan array binding signal (z-score),[15],1.35
same,glycan array binding signal (z-score),[16],0.399
same,glycan array binding signal (z-score),[17],-0.358
same,glycan array binding signal (z-score),[18],1.29
same,glycan array binding signal (z-score),Fuc(a1-2)Gal(b1-4)Glc,-0.701
same,glycan array binding signal (z-score),Fuc(a1-2)Gal(b1-4)Glc6S,1.62
same,glycan array binding signal (z-score),Fuc(a1-2)Gal(b1-4)GlcNAc,-0.588
same,glycan array binding signal (z-score),[19],-1.39
same,glycan array binding signal (z-score),[20],0.667
same,glycan array binding signal (z-score),[21],1.1
same,glycan array binding signal (z-score),[22],0.922
same,glycan array binding signal (z-score),[23],0.428
same,glycan array binding signal (z-score),[24],-0.411

# 2 records drawn at random from the list so far, as already listed:
binder,measurement,setting,value
PX9961Q-bfa-504-27-504 (Bacteroides fragilis) (protein) NDWLDRKPADGIPSEDAITNYNDALTARTGMYDGIQGNSNATSYYGARMFYYGDVRADDMQARTQGMRSSSCYEMLYTVDDAPNMWNIPYNVIRRANRLIEAINEKKVTDATEAQIGKIYSEALVVRALVHFDLVRIYGMPYTADNGASLGVPVIVKPLERNDLPSRNTVAEVYTQVITDLTDAINSGYLAKDQTPGYINEWAAKALLTRVYLTKGDNENALKVAEDIITNSPYKLWTNEEYVNAWYKSNGAHTNEMIFEVVNASNDDWTDRNGIAYLLNENGYADAIVTKSFMNMLSQDPKDVRIGMVLPAQYDKDLQEEYGDAKIFINKFPADKDDVGEMRLNNLPLLRLSEVYLSAAEAAAKLGGHQDKAAKYLNEIVQRANPEAKAISEADATVERIILERRKEMIGEGQRYFDALRNNETIVRYKDEGDKGYHYSLIKESQSFDRTYFRAILPIPVDETNVNPNLRAQQNPGY,glycan array binding signal (z-score),[15],1.35
same,glycan array binding signal (z-score),[6],2.69
